# This is one part of the list.
# B1: CD4 (Rattus norvegicus), P05540 (protein)
# chain: MCRGFSFRHLLPLLLLQLSKLLVVTQGSTSITAYKSEGESAEFSFPLNLGEESLQGELRWKAEKAPSSQSWITFSLKNQKVSVQKSTSNPKFQLSETLPLTLQIPQVSLQFAGSGNLTLTLDRGILYQEVNLVVMKVTQPDSNTLTCEVMGPTSPKMRLILKQENQEARVSRQEKVIQVQAPEAGVWQCLLSEGEEVKMDSKIQVLSKGLNSGGGSGGGTGGGDLAPQMLRELQETNAALQDVRELLRQQVKEITFLKNTVMECDACGLDRNLPPLAPLGPHPETLVKVKDAEDQLGARVGYIELDLNSGKILESFRPEERFPMMSTFKVLLCGAVLSRIDAGQEQLGRRIHYSQNDLVEYSPVTEKHLTDGMTVRELCSAAITMSDNTAANLLLTTIGGPKELTAFLHNMGDHVTRLDRWEPELNEAIPNDERDTTMPVAMATTLRKLLTGELLTLASRQQLIDWMEADKVAGPLLRSALPAGWFIADKSGAGERGSRGIIAALGPDGKPSRIVVIYTTGSQATMDERNRQIAEIGASLIKHW
# What was measured:
# Experiment in all cases: glycan array binding signal (z-score within array); higher = stronger binding
# Details in all cases: glycan notation: IUPAC condensed, linker removed
# [1] = biological target: Gal(b1-3)GlcNAc(b1-2)Man(a1-3)[Gal(b1-3)GlcNAc(b1-2)Man(a1-6)]Man(b1-4)GlcNAc(b1-4)[Fuc(a1-6)]GlcNAc
# Outline: (§1)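 Negative Z-scores can be read as non-binding. The Z-score is calculated within each array and then averaged across arrays of one protein sequence at different concentrations or buffers and across linkers. Arrays, 3228 in all, were curated from the Consortium for Functional Glycomics database and kept only where the protein sequence was available.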
# [2] = biological target: Gal(b1-3)GlcNAc(b1-2)Man(a1-3)[GlcNAc(b1-4)][Gal(b1-3)GlcNAc(b1-2)Man(a1-6)]Man(b1-4)GlcNAc(b1-4)GlcNAc
# Outline: as §1
# [3] = biological target: Gal(b1-3)GlcNAc(b1-2)[Gal(b1-3)GlcNAc(b1-6)]Man(a1-6)[Gal(b1-3)GlcNAc(b1-2)Man(a1-3)]Man(b1-4)GlcNAc(b1-4)GlcNAc
# Outline: as §1
# [4] = biological target: Gal(b1-3)GlcNAc(b1-3)Gal(b1-3)GlcNAc
# Outline: as §1
# [5] = biological target: Gal(b1-3)GlcNAc(b1-3)Gal(b1-4)Glc
# Outline: as §1
# [6] = biological target: Gal(b1-3)GlcNAc(b1-3)Gal(b1-4)GlcNAc
# Outline: as §1
# [7] = biological target: Gal(b1-3)GlcNAc(b1-3)Gal(b1-4)GlcNAc(b1-2)Man(a1-3)[Gal(b1-3)GlcNAc(b1-3)Gal(b1-4)GlcNAc(b1-2)Man(a1-6)]Man(b1-4)GlcNAc(b1-4)GlcNAc
# Outline: as §1
# [8] = biological target: Gal(b1-3)GlcNAc(b1-3)Gal(b1-4)GlcNAc(b1-2)[Gal(b1-3)GlcNAc(b1-3)Gal(b1-4)GlcNAc(b1-6)]Man(a1-6)[Gal(b1-3)GlcNAc(b1-3)Gal(b1-4)GlcNAc(b1-2)Man(a1-3)]Man(b1-4)GlcNAc(b1-4)[Fuc(a1-6)]GlcNAc
# Outline: as §1
# [9] = biological target: Gal(b1-3)GlcNAc(b1-3)Gal(b1-4)GlcNAc(b1-3)Gal(b1-4)GlcNAc(b1-2)[Gal(b1-3)GlcNAc(b1-3)Gal(b1-4)GlcNAc(b1-3)Gal(b1-4)GlcNAc(b1-6)]Man(a1-6)[Gal(b1-3)GlcNAc(b1-3)Gal(b1-4)GlcNAc(b1-3)Gal(b1-4)GlcNAc(b1-2)Man(a1-3)]Man(b1-4)GlcNAc(b1-4)[Fuc(a1-6)]GlcNAc
# Outline: as §1
# [10] = biological target: Gal(b1-3)GlcNAc(b1-3)Gal(b1-4)GlcNAc(b1-6)[Gal(b1-3)GlcNAc(b1-3)]Gal(b1-4)Glc
# Outline: as §1
# [11] = biological target: Gal(b1-3)GlcNAc(b1-3)Gal(b1-4)[Fuc(a1-3)]GlcNAc(b1-6)[Gal(b1-3)GlcNAc(b1-3)]Gal(b1-4)Glc
# Outline: as §1
# [12] = biological target: Gal(b1-3)GlcNAc(b1-3)GalNAc
# Outline: as §1
# [13] = biological target: Gal(b1-3)GlcNAc(b1-6)Gal(b1-4)GlcNAc
# Outline: as §1
# [14] = biological target: Gal(b1-3)GlcNAc(b1-6)GalNAc
# Outline: as §1
# [15] = biological target: Gal(b1-3)GlcNAc(b1-6)[Gal(b1-3)]GalNAc
# Outline: as §1
# [16] = biological target: Gal(b1-3)GlcNAc6S
# Outline: as §1
# [17] = biological target: Gal(b1-3)[Fuc(a1-4)]GlcNAc
# Outline: as §1
# [18] = biological target: Gal(b1-3)[Fuc(a1-4)]GlcNAc(b1-2)Man
# Outline: as §1
# [19] = biological target: Gal(b1-3)[Fuc(a1-4)]GlcNAc(b1-2)Man(a1-3)[Gal(b1-3)[Fuc(a1-4)]GlcNAc(b1-2)Man(a1-6)]Man(b1-4)GlcNAc(b1-4)[Fuc(a1-6)]GlcNAc
# Outline: as §1
# [20] = biological target: Gal(b1-3)[Fuc(a1-4)]GlcNAc(b1-3)Gal(b1-3)[Fuc(a1-4)]GlcNAc
# Outline: as §1
# [21] = biological target: Gal(b1-3)[Fuc(a1-4)]GlcNAc(b1-3)Gal(b1-4)GlcNAc
# Outline: as §1
# [22] = biological target: Gal(b1-3)[Fuc(a1-4)]GlcNAc(b1-3)Gal(b1-4)[Fuc(a1-3)]GlcNAc
# Outline: as §1
# [23] = biological target: Gal(b1-3)[Fuc(a1-4)]GlcNAc(b1-6)GalNAc
# Outline: as §1
# [24] = biological target: Gal(b1-3)[GlcNAc(b1-6)]GalNAc
# Outline: as §1
# [25] = biological target: Gal(b1-3)[Neu5Ac(a2-6)]GalNAc
# Outline: as §1
# [26] = biological target: Gal(b1-3)[Neu5Ac(a2-6)]GlcNAc(b1-4)Gal(b1-4)Glc
# Outline: as §1
# [27] = biological target: Gal(b1-3)[Neu5Ac(b2-6)]GalNAc
# Outline: as §1
# [28] = biological target: Gal(b1-4)Gal
# Outline: as §1
# [29] = biological target: Gal(b1-4)GalNAc(a1-3)[Fuc(a1-2)]Gal(b1-4)GlcNAc
# Outline: as §1
# [30] = biological target: Gal(b1-4)GalNAc(b1-3)[Fuc(a1-2)]Gal(b1-4)GlcNAc
# Outline: as §1
binder,measurement,setting,value
B1,glycan array binding signal (z-score),[1],-0.068
same,glycan array binding signal (z-score),[2],0.997
same,glycan array binding signal (z-score),[3],1.64
same,glycan array binding signal (z-score),[4],-0.783
same,glycan array binding signal (z-score),[5],-0.039
same,glycan array binding signal (z-score),[6],0.41
same,glycan array binding signal (z-score),[7],0.423
same,glycan array binding signal (z-score),[8],0.679
same,glycan array binding signal (z-score),[9],1.37
same,glycan array binding signal (z-score),[10],0.253
same,glycan array binding signal (z-score),[11],0.64
same,glycan array binding signal (z-score),[12],0.109
same,glycan array binding signal (z-score),[13],-1.04
same,glycan array binding signal (z-score),[14],-1.94
same,glycan array binding signal (z-score),[15],-0.103
same,glycan array binding signal (z-score),[16],0.978
same,glycan array binding signal (z-score),[17],-0.474
same,glycan array binding signal (z-score),[18],0.451
same,glycan array binding signal (z-score),[19],1.36
same,glycan array binding signal (z-score),[20],-0.05
same,glycan array binding signal (z-score),[21],-0.072
same,glycan array binding signal (z-score),[22],0.219
same,glycan array binding signal (z-score),[23],0.698
same,glycan array binding signal (z-score),[24],0.137
same,glycan array binding signal (z-score),[25],-1.09
same,glycan array binding signal (z-score),[26],0.185
same,glycan array binding signal (z-score),[27],0.019
same,glycan array binding signal (z-score),[28],-0.519
same,glycan array binding signal (z-score),[29],2.27
same,glycan array binding signal (z-score),[30],-0.768

# Another view of some results above:
binder | measurement | setting | value
B1 | glycan array binding signal (z-score) | [1] | -0.068
same | glycan array binding signal (z-score) | [2] | 0.997

# — the supplement of paper PMC8728848
